{"sequences": {"note": "Chains of the proteins cited; added tags and fusions are not shown.", "UniProt P12004": "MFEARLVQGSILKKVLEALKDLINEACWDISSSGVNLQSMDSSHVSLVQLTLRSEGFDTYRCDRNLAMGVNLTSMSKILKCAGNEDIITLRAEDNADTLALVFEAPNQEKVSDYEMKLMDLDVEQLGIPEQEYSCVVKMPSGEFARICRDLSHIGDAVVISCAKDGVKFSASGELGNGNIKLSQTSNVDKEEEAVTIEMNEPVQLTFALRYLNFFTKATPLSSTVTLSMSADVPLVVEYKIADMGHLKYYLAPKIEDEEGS", "UniProt P52701": "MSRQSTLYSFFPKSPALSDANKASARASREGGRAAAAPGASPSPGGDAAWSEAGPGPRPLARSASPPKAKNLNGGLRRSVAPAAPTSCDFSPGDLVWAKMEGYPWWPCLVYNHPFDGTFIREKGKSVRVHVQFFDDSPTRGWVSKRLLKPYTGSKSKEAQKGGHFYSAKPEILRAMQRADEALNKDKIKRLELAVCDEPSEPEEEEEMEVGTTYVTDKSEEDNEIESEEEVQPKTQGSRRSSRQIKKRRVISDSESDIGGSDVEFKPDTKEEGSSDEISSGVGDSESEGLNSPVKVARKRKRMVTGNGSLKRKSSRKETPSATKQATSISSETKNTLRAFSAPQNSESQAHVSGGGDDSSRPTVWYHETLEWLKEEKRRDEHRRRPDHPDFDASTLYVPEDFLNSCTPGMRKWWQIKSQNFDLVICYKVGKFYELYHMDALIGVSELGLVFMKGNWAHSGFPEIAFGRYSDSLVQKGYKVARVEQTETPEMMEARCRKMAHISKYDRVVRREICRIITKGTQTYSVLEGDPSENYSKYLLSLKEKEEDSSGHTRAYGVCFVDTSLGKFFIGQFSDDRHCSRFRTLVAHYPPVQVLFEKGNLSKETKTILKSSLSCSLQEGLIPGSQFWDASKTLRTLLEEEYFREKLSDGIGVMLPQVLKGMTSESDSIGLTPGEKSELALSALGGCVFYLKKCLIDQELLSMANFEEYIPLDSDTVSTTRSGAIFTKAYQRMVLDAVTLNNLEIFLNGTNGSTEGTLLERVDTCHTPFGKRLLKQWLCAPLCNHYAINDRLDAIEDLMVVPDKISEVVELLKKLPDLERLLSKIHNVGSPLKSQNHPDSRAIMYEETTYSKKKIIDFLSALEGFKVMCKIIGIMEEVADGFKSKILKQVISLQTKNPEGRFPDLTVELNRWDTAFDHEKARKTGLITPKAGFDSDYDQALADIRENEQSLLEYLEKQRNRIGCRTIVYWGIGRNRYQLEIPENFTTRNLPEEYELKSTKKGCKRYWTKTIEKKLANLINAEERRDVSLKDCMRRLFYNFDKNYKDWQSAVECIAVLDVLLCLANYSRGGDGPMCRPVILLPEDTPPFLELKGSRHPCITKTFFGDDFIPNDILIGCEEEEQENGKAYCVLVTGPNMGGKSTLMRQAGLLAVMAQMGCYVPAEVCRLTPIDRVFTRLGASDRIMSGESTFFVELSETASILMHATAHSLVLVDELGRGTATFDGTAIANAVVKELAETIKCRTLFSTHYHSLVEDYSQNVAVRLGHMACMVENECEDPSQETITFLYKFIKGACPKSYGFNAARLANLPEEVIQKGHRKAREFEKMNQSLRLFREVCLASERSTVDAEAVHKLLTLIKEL"}, "source": "paper PMC11731006", "about": "“Structural insight into Okazaki fragment maturation mediated by PCNA-bound FEN1 and RNaseH2”", "target": "N-terminally twin-strep tagged PCNA (Proliferating Cell Nuclear Antigen) (human) (UniProt P12004)", "assay": "affinity purification with mass spectrometry; twin-strep-PCNA as bait from MNase-solubilised chromatin of hydroxyurea-treated HEK293 cells; anti-Strep affinity beads, elution with 20 mM desthiobiotin, 10-30% glycerol gradient; Coomassie gel bands identified by mass spectrometry", "note": "These are yes or no findings as the source states them, for the method shown. In cells and extracts the contact can be indirect. These calls come from enrichment with a bait or labelling near it, and not all partners need be listed.", "data": [{"substance": "MSH6 (from UniProt P52701 1-1360)", "values": [{"measurement": "binding", "value": "binds"}]}]}
